Data from PubChem BioAssay AID1117319 (Southern Research Institute, 2015).
In all, about 260,000 compounds went through this assay and about 1,500 (0.58%) were called active. This list was built around the results that the source calls inconclusive (neither active nor inactive); the mix of calls is not that of the screen.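 The calls were made as follows: active = inhibition above a set limit at one or more doses, reproduced on every date tested; inconclusive = results disagree between test dates, or hit never tested in dose response; inactive = the rest.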

Sequences of proteins named here, by UniProt entry; tags and fusion partners are left off. A change or cut given only in a name is not applied to a line headed by its entry.
UniProt P69720: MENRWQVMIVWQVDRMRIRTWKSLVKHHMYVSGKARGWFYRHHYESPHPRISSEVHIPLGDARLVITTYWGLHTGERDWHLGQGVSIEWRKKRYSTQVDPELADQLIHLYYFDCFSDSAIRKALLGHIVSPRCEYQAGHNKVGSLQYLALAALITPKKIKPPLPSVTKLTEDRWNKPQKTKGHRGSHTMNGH
UniProt P69721: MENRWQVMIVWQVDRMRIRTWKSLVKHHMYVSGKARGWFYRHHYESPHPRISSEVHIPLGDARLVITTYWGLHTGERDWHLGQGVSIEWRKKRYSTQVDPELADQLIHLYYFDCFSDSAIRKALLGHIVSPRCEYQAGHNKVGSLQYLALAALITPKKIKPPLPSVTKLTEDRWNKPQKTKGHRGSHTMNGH
UniProt P69722: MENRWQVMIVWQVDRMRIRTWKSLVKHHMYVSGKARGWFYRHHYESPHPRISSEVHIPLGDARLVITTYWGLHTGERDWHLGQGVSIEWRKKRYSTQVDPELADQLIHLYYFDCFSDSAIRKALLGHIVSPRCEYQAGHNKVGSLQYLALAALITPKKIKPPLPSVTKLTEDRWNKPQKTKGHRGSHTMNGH
UniProt P69723: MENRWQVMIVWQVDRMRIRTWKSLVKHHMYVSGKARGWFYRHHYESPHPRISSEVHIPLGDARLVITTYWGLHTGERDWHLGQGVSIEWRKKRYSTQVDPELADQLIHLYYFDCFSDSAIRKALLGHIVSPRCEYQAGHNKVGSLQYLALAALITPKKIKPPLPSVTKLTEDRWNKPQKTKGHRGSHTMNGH
UniProt Q9HC16: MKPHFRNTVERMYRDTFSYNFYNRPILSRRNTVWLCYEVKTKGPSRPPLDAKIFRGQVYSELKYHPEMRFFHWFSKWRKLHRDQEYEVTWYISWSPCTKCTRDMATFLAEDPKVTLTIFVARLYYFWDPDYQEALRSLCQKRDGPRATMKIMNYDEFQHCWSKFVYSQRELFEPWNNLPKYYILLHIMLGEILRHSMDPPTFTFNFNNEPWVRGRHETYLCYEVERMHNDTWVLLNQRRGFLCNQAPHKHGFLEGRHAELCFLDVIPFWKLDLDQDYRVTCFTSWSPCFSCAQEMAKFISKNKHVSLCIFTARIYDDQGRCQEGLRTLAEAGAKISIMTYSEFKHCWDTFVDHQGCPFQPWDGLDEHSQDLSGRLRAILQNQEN

Each molecule was assayed against Virion infectivity factor (Human immunodeficiency virus type 1 group M subtype B (isolate BH10)) + Virion infectivity factor (Human immunodeficiency virus type 1 group M subtype B (isolate BRU/LAI)) + Virion infectivity factor (Human immunodeficiency virus type 1 group M subtype B (isolate PCV12)) + Virion infectivity factor (Human immunodeficiency virus type 1 group M subtype B (isolate HXB2)) + DNA dC->dU-editing enzyme APOBEC-3G (Homo sapiens) (UniProt P69720+P69721+P69722+P69723+Q9HC16) (assay: inhibitors of Vif binding to APOBEC3G peptide, primary screen, biochemical, TR-FRET, GST-Vif 1-94, biotin-A3G peptide, dose response retest (AID 1117319;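 also: Vif residues 1-94 fused to GST binding biotinylated APOBEC3G peptide 110-148; 0% = full assay without inhibitor and 100% = GST in place of GST-Vif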)). Conditions: stronger effect = higher value.

Structure (SMILES) | inhibition
C/C=C/C=C\C(=O)Nc1cccc(C2=NOC3(C2)C[C@@H](C(N)=O)N(C(=O)c2cc([N+](=O)[O-])cc([N+](=O)[O-])c2)C3)c1 (some centres not stated) | inconclusive: 58.5%
CN(C)C(CNC(=O)c1cccs1)c1cccnc1 (configuration not stated) | inconclusive: 40%
O=C(O)C1C(=O)NCC1c1ccccc1 (configuration not stated) | inconclusive: 36.7%
CC(=O)Nc1ccc2c(c1)OCCOCCOc1cc(NC(C)=O)ccc1OCCO2 | inconclusive: 46.8%
O=C(Nc1ccc(Cl)cc1)c1csc(-c2ccccc2)n1 | inconclusive: 62.3%
CCC(C)NC(=O)C1CCC(CNS(=O)(=O)c2ccc3c(c2)CC(C)N3C(C)=O)CC1 (configuration not stated) | inactive: 4.98%
Cc1ccc(S(=O)(=O)NCc2ccccn2)cc1C | inconclusive: 37.3%
Cc1ccc(-c2n[nH]c(=O)c3ccccc23)cc1S(=O)(=O)N(C)CCO | inconclusive: 61.5%
COC(=O)c1ccc2c(c1)SC1=C(CCCC1=O)N2 | inactive: 20.1%
Cc1ccc(CN(Cc2cc3cc4c(cc3[nH]c2=O)OCCO4)Cc2nnnn2Cc2ccco2)cc1 | inconclusive: 55.7%
O=C(COC(=O)c1ccc2c(c1Cl)C(=O)c1ccccc1C2=O)NC1CCCCC1 | inconclusive: 41.9%
CCC(CO)NCCNC(CC)CO (configuration not stated) | inconclusive: 60.1%
COc1ccc2c(c1OC)C(=O)OC2Nc1ccccc1S(=O)(=O)C(F)F (configuration not stated) | inconclusive: 38.1%
C(=C\CSc1ncn[nH]1)/CSc1ncn[nH]1 | inconclusive: 48.6%
O=C1CN(CC(=O)N2CCOCC2)c2ccccc2O1 | inconclusive: 34.1%
COc1ccc(C2C(=O)N(C3CCCCC3)CC(=O)N2CCc2ccccc2)cc1OC (configuration not stated) | inconclusive: 38.6%
CCOC(=O)Nc1ccc2c(c1)N(C(=O)CCN(CC)CC)c1ccccc1CC2 | inconclusive: 48.5%
COc1ccc(CNc2cc(C)ccc2C)c(OC)c1OC | inconclusive: 35.4%
Fc1ccc(-n2c(Cn3nnc4ccccc43)n[nH]c2=S)cc1 | inconclusive: 58.9%
CCOC(=O)c1ccc(NC(=O)C(=O)NCc2ccc(/C=C(/C#N)C(=O)NCCOC)o2)cc1 | inactive: -2.3%
O=C(CC1SC(=Nc2ccccc2)N(CCO)C1=O)Nc1ccccc1 (configuration not stated) | inconclusive: 58.2%
COc1cc([N+](=O)[O-])cc(/C=N/NC(=O)CC#N)c1O | inconclusive: 49.6%
COC(=O)Cn1ncn2cccc2c1=O | inactive: 31%

Structure (SMILES) | inhibition
COc1ccc(/C=N/NC(=O)c2ccc(COc3cccc4cccnc34)cc2)cc1O | inconclusive: 48.9%
Fc1cccc(Cl)c1CNn1cn[nH]c1=S | inconclusive: 33.1%
O=C(CN(Cc1ccc2c(c1)OCO2)C(=O)c1cnsn1)NC1CCCC1 | inconclusive: 35.5%
COC(=O)c1ccc(CN2CCN(CCCc3ccccc3)C(CCO)C2)cc1 (configuration not stated) | inconclusive: 47.9%
N/C(=N\S(=O)(=O)c1ccc(Cl)cc1)N1CCOCC1 | inconclusive: 52.9%
COC(=O)c1ccc2c(=O)[nH]c(CCl)nc2c1 | inconclusive: 33.6%
O=C(CN1CCN(Cc2ccccc2Cl)CC1)N/N=C/C=C/c1ccco1 | inconclusive: 37.2%
Cc1nc2ccccc2nc1-c1ccc([N+](=O)[O-])cc1 | inactive: 3.82%
CC(C)C(=O)Nc1nnc(Cc2ccccc2)s1 | inactive: -2.22%
CCOC(=O)c1ccc(NC(=O)CSc2nc(C)cc(=O)[nH]2)cc1 | inconclusive: 31.7%
COc1cc(CCC(=O)OCC(=O)Nc2cccc(S(=O)(=O)N(C)C)c2)cc(OC)c1OC | inconclusive: 54.7%
CC(C)NS(=O)(=O)c1ccc(CCC(=O)NCc2ccco2)cc1 | inconclusive: 45.4%
CCN1CCCC1CNC(=O)c1ccc(N2CCOCC2)c(NS(=O)(=O)c2ccc(OC)cc2)c1 (configuration not stated) | inconclusive: 56.1%
CCOC(=O)CC1C(=O)NCCN1C(=O)c1cc2c(=O)n3ccccc3nc2s1 (configuration not stated) | inconclusive: 42.9%
COc1ccc(/C=N\NC(=O)c2cccc([N+](=O)[O-])c2)cc1Cn1cc([N+](=O)[O-])cn1 | inactive: 9.14%
CC(C)(CNc1ccc([N+](=O)[O-])cc1Cl)CNS(C)(=O)=O | inconclusive: 50.2%
Cc1ccc(S(=O)(=O)NCc2ccccn2)c(C)c1 | inconclusive: 47%
O=C(Nc1c(C(=O)O)[nH]c2ccccc12)NC1CCCCC1 | inconclusive: 55.2%
O=C1/C(=C/c2cccs2)SC(=S)N1c1ccccc1 | inactive: -6.53%
O=C1NCCN1CCNS(=O)(=O)c1ccc2ccccc2c1 | inconclusive: 38.8%
CCCSc1nc(NCc2ccco2)c2c3c(sc2n1)COC(C)(C)C3 | inconclusive: 33%
COC(=O)C(=C/C=C/N1CCOCC1)C(=O)OC | inconclusive: 42.8%
Cc1ccc(C)c(CSc2nnc(C)c(=O)[nH]2)c1 | inactive: -5.37%

Structure (SMILES) | inhibition
CC(=O)Nc1ccc(S(=O)(=O)Nc2nccs2)cc1 | inactive: -1.8%
O=C(NNS(=O)(=O)c1ccc(Br)cc1)c1cccs1 | inconclusive: 36%
COc1ccc(S(=O)(=O)N2CN(Cc3ccco3)c3nc4ccccc4nc32)cc1 | inconclusive: 35.2%
CCN(CC)CCn1c2ccc(Cl)cc2c2nc(C)sc21 | inconclusive: 46.7%
COc1ccc(Cn2c(SCc3cc(C)ccc3C)nc3cc(OC)c(OC)cc3c2=N)cc1 | inconclusive: 43.2%
Cn1c(Cn2c(=O)sc3ccccc32)nnc1SCC(=O)Nc1ccccc1F | inconclusive: 51.5%
CCCCSc1nnc(CCCCCNC(=O)OC(C)(C)C)o1 | inactive: 1.82%
CCN(CC)CCN1CNC(=S)N(c2ccccc2OC)C1 | inconclusive: 46.1%
CCOC(=O)c1c(C)n(C)c2ccc(OC)c(NC(=O)c3cccs3)c12 | inconclusive: 35.7%
COCCn1c(C)cc(C(=O)COc2ccc(C)nc2[N+](=O)[O-])c1C | inconclusive: 36.6%
CCNC(=O)Nc1cc2nc(C)n(Cc3ccc(Br)cc3)c2nc1C | inconclusive: 36.2%
O=C(Nc1cccc(C(F)(F)F)c1)Oc1ccccc1N1CCOCC1 | inactive: 4.5%
COc1nccc(C(F)(F)F)c1C(=O)NC(=O)Nc1c(C)cccc1C | inconclusive: 53%
O=C(COC(=O)c1ccccn1)Nc1c(Cl)cccc1Cl | inconclusive: 57.1%
CCc1nnc(NC(=O)c2cnccn2)s1 | inconclusive: 47.3%
O=C1/C(=C\c2ccc(-c3ccccc3Cl)o2)SC(=S)N1CC1CCCO1 (configuration not stated) | inconclusive: 42.9%
Oc1c(Br)cc(Br)cc1C=NCc1ccccc1 | inactive: -9.44%
CCOC(=O)N1CCN(c2cc(NCCC(=O)O)c3c4c(onc24)-c2ccccc2C3=O)CC1 | inconclusive: 56.2%
Cc1ccc(NC(=S)N2CCCC(CO)C2)c(C)c1 (configuration not stated) | inconclusive: 34.3%
C=CCC1C=C(C)CC(CC=C)N1 (configuration not stated) | inconclusive: 50.2%
c1ccc(-c2nc(NCc3cccs3)c3ccccc3n2)cc1 | inconclusive: 38%
c1cncc(CNc2ccc3c(c2)OCO3)c1 | inconclusive: 38.7%
COc1ccccc1CN(CC(=O)NCc1ccco1)C(=O)CNS(=O)(=O)c1ccccc1 | inconclusive: 33.2%

Compounds from the list above with a CF3 group, in the order listed:
Structure (SMILES) | inhibition
O=C(Nc1cccc(C(F)(F)F)c1)Oc1ccccc1N1CCOCC1 | inactive: 4.5%
COc1nccc(C(F)(F)F)c1C(=O)NC(=O)Nc1c(C)cccc1C | inconclusive: 53%

Continued:

Structure (SMILES) | inhibition
CC(C)OCCCNc1ncc2c(n1)CC(c1ccccc1)CC2=O (configuration not stated) | inconclusive: 50.3%
CCOC(=O)C(=NC1CCS(=O)(=O)C1)NNc1ccccc1Cl (configuration not stated) | inconclusive: 35%
N=C1C(c2ccccc2)=C(O)CN1NC(=O)c1ccccc1 | inconclusive: 49.1%
CCN1CCN(C(c2cccnc2)c2cc(Cl)c3cccnc3c2O)CC1 (configuration not stated) | inconclusive: 47.7%
COC(=O)c1sccc1N/N=C(\C)c1ccc(F)c(Cl)c1 | inconclusive: 55.8%
O=C(c1cc(COc2ccc(F)cc2F)on1)N1CCCC(c2ccccc2)C1 (configuration not stated) | inconclusive: 34.3%
COC(C/C=C/C(=O)COCc1ccccc1)OC | inconclusive: 42.2%
CCOc1ccc(/C(O)=C2\C(=O)C(=O)N(c3cc(C)on3)C2c2ccccc2OC)cc1 (configuration not stated) | inconclusive: 35.1%
CC(NC(=O)Nc1ccc2c(c1)OCO2)c1ccncc1 (configuration not stated) | inconclusive: 54.8%
CCOC(=O)C1=C(C)NC(=O)NC1c1ccc(NC(C)=O)cc1 (configuration not stated) | inconclusive: 34.1%
Cn1cccc1/C=C1\SC(=O)N(c2ccc(O)cc2)C1=O | inactive: 4.46%
COC(=O)c1[nH]c2c(c1C)C(=O)CC(c1ccc(OC)c(OC)c1)C2 (configuration not stated) | inactive: -9.19%
O=c1cc(CSc2nnc(COc3ccccc3)o2)c2ccccc2[nH]1 | inconclusive: 35%
Fc1cccc(-c2oncc2-c2nnnn2-c2ccc(Cl)cc2)c1 | inconclusive: 35.4%
N#Cc1ccsc1NC(=O)CSc1nnc(-c2ccccc2)o1 | inconclusive: 35.8%
Cc1cc(C)c2c(C)nn(C3CCCCC3)c2n1 | inconclusive: 34.1%
CCOc1ccc(CNC(=O)C2CCC(=O)N2C2CCCC2)cc1OC (configuration not stated) | inconclusive: 41.4%
CC1CCCN(c2ccc3nc4ccccc4c(=O)n3n2)C1 (configuration not stated) | inconclusive: 49.8%
COc1ccc(S(=O)(=O)/N=C2/NC(=O)/C(=C\c3ccco3)S2)cc1 | inconclusive: 52.8%
Cn1c(=O)cc(SCC(=O)N2CCOCC2)c2ccc(Cl)cc21 | inconclusive: 34.2%
Cc1ccc(C(=O)CSc2nnc(COc3cccc(C)c3)o2)cc1 | inconclusive: 39.4%
CCOCCCNC(=O)c1ccc2c(=O)n(Cc3ccc(OC)cc3)c(=O)[nH]c2c1 | inconclusive: 49.4%
Clc1ccc(N=c2ssnc2Cl)cc1 | inconclusive: 34.1%

Ordered by count of non-hydrogen atoms (largest number first): three of the compounds above.
Structure (SMILES) | inhibition
COC(=O)c1[nH]c2c(c1C)C(=O)CC(c1ccc(OC)c(OC)c1)C2 (configuration not stated) | inactive: -9.19%
COC(=O)c1sccc1N/N=C(\C)c1ccc(F)c(Cl)c1 | inconclusive: 55.8%
COC(C/C=C/C(=O)COCc1ccccc1)OC | inconclusive: 42.2%
